The other results are listed elsewhere or left out.
Assays:
Test in all cases: log2 fold change, soluble protein after heating vs DMSO (PISA); higher = thermal stabilisation; K562 cells, 10 uM, 30 min; active = over 0.2 and 3.5 SD of the protein, either way, in both replicates (recomputed)
saracatinib = compound: CN1CCN(CCOc2cc(OC3CCOCC3)c3c(Nc4c(Cl)ccc5c4OCO5)ncnc3c2)CC1 [saracatinib]
In short: (§1)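 Soluble protein was defined as the supernatant after 21,000xg for 90 min. It came from K562 cells at 2×10^6 cells/mL given 10 μM compound for 30 min, heated in aliquots for 3 min across 48°C-58°C, pooled, and extracted in PBS with 0.5% NP-40 at 4°C, and was quantified by TMTpro 16plex LC-MS/MS with equalised channel sums. Thermal stability against control samples, from duplicates, is reported as log2 fold change.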

Chains of the proteins cited; added tags and fusions are not shown. Lines headed by an entry give the natural chain unless they say otherwise; changes in a name come on top.
UniProt P62879, whole entry, looked up: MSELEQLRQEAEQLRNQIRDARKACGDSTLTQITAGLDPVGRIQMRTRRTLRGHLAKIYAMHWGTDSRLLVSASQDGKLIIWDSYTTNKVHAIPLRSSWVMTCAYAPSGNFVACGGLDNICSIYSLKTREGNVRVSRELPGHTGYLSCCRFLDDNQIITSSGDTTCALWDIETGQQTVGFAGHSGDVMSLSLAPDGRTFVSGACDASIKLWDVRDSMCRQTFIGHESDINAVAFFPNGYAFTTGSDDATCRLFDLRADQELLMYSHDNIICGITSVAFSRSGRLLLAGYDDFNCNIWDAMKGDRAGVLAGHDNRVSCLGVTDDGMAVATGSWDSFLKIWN
UniProt Q9BRR8: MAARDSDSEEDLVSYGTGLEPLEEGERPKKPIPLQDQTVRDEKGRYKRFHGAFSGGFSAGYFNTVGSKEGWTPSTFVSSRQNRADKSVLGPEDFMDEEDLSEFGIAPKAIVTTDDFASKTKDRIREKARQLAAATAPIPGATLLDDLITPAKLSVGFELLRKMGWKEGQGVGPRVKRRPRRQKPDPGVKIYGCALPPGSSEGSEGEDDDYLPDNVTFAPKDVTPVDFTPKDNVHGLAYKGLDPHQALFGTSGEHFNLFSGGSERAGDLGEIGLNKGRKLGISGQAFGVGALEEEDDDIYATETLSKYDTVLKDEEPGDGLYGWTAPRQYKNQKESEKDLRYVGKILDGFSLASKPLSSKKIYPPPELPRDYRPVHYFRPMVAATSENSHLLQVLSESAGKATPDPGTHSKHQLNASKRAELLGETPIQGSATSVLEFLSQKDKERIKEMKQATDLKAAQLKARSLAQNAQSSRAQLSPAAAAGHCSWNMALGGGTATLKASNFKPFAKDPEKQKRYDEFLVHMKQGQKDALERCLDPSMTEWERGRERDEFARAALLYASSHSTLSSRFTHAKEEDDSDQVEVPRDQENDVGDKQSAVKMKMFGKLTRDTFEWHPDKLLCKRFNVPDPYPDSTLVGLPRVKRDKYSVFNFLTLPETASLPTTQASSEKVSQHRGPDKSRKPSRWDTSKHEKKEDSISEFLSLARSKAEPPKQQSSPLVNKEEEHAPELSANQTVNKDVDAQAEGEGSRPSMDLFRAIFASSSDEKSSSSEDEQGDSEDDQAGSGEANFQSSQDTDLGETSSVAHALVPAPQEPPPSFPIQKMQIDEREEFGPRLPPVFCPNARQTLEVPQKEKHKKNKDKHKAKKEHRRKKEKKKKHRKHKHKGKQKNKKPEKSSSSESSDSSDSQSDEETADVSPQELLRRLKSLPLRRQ
UniProt Q3T8J9: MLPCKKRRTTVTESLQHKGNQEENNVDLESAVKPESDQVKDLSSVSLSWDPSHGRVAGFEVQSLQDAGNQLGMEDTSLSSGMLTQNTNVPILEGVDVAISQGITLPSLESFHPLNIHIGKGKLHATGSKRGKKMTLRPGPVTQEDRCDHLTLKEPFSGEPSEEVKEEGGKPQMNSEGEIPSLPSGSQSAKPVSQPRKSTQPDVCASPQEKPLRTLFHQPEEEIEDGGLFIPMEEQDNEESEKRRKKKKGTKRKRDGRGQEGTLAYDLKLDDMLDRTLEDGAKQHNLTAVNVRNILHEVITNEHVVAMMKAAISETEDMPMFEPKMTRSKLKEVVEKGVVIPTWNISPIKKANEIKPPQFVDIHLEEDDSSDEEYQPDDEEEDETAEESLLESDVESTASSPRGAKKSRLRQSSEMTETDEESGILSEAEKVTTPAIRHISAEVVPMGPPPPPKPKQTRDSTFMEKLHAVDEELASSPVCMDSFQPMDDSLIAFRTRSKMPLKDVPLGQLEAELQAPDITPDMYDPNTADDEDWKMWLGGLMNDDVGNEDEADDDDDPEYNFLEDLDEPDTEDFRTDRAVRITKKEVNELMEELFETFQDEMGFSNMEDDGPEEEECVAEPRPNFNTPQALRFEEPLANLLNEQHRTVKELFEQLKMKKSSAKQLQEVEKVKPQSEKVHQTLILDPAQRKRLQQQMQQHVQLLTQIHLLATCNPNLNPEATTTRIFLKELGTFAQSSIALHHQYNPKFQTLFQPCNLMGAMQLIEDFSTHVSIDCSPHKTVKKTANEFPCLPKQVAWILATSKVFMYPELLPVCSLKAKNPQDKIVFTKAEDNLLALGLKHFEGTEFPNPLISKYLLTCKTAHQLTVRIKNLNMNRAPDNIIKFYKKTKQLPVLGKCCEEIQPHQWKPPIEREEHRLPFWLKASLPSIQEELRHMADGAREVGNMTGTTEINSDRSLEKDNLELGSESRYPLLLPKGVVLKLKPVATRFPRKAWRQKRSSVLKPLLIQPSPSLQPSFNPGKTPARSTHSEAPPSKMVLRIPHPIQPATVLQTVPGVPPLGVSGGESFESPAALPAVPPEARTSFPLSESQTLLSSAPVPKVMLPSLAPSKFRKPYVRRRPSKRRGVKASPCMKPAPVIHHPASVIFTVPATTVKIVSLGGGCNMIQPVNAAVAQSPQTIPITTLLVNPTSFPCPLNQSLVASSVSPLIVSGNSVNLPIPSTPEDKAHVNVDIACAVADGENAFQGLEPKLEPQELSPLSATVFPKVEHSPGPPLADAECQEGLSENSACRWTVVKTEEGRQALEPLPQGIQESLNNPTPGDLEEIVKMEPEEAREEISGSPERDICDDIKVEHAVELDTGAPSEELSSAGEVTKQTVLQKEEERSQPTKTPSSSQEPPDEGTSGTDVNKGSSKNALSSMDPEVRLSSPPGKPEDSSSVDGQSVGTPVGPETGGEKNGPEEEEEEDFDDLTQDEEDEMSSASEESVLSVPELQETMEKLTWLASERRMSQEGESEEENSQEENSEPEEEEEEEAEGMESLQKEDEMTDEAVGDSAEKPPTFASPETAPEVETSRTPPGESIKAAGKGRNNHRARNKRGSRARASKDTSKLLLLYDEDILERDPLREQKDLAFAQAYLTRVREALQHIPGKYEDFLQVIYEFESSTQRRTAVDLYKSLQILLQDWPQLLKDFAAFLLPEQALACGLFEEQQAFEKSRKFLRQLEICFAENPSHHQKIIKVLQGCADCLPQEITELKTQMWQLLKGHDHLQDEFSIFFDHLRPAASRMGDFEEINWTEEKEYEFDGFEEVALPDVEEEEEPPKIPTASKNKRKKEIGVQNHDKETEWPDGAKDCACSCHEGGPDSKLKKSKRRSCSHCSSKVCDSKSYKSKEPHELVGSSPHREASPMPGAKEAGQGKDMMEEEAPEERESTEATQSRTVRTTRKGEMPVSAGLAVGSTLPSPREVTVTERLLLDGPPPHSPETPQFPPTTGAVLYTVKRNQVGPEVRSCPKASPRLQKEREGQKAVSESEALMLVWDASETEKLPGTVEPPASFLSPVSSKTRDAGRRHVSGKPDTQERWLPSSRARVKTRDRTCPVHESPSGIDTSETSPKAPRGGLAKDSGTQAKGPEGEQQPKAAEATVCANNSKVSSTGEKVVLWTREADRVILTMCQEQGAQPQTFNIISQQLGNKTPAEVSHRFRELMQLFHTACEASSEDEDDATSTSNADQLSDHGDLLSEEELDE
UniProt Q9P107: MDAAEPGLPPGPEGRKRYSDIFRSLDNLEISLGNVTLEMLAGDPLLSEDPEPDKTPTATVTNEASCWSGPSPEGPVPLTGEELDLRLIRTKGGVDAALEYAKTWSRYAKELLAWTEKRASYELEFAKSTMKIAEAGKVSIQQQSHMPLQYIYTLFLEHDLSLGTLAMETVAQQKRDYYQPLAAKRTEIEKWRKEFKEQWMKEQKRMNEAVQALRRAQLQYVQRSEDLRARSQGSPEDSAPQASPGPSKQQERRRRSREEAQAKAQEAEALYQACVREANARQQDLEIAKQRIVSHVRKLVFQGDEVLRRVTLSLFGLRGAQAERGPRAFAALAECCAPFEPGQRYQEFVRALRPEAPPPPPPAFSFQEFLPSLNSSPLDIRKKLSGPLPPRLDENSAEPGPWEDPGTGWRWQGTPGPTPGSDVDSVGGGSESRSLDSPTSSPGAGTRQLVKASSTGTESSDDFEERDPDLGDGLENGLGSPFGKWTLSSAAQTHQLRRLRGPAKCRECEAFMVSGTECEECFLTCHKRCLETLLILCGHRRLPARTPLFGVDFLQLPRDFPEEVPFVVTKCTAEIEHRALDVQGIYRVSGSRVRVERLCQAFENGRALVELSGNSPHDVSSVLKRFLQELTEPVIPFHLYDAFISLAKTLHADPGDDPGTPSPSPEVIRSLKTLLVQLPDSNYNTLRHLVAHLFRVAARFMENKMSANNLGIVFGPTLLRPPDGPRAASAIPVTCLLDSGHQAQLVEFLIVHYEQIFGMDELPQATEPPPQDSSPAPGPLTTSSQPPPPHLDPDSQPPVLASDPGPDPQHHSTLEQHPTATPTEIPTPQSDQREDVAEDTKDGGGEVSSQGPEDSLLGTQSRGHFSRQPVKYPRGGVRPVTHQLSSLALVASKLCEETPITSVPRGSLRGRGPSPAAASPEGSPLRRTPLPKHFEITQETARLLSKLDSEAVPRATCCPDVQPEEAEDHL
UniProt O94925: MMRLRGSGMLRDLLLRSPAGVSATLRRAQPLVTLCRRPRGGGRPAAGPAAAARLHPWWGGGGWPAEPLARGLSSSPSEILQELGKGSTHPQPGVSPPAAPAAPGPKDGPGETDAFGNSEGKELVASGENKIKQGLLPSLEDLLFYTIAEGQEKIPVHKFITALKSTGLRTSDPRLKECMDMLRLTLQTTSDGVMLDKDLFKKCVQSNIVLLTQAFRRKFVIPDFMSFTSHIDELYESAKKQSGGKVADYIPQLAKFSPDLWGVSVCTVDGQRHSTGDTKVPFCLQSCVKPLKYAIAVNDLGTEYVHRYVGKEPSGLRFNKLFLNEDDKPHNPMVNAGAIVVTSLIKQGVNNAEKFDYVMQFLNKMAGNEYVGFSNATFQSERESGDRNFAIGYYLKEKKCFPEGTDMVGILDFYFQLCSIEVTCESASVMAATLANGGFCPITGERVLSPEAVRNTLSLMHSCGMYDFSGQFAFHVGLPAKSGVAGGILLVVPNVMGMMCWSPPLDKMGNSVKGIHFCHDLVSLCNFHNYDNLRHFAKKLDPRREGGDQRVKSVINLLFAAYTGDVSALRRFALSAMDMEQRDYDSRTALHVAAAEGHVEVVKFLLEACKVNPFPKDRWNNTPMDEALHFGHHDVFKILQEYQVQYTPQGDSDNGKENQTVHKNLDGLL
UniProt P36969, whole entry, looked up: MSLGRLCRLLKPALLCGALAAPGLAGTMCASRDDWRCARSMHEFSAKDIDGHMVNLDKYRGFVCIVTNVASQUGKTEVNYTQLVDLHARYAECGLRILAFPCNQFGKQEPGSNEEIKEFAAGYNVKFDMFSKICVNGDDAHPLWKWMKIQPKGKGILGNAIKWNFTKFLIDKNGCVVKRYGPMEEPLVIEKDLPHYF
UniProt Q5JWF2, whole entry, looked up: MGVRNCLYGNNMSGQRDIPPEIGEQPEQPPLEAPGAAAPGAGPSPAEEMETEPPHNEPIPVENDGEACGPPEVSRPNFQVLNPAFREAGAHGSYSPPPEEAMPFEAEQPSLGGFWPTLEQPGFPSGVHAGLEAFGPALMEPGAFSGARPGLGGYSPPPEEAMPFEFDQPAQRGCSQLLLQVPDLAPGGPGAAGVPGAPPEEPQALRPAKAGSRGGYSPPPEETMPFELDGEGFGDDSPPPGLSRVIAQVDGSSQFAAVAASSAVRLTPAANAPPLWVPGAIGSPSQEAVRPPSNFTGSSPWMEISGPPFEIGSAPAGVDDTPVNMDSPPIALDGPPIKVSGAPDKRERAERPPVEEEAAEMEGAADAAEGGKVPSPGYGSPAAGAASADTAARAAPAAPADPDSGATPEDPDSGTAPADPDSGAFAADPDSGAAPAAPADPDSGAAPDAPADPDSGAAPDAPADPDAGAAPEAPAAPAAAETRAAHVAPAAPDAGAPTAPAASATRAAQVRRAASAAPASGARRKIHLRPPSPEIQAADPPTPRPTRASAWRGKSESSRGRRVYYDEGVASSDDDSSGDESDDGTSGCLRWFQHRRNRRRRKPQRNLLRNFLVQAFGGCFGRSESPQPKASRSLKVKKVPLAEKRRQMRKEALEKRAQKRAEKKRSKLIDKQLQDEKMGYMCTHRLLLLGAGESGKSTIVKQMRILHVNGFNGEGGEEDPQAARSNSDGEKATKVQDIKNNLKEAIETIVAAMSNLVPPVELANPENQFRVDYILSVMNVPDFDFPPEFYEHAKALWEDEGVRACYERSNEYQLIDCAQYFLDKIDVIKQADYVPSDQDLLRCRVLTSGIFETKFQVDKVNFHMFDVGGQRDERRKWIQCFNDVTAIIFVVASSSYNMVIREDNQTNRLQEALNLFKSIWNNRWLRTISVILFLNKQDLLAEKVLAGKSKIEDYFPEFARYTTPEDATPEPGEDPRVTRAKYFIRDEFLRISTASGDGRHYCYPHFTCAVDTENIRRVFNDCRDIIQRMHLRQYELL

sotrastaurin = compound: CN1CCN(c2nc(C3=C(c4c[nH]c5ccccc45)C(=O)NC3=O)c3ccccc3n2)CC1 [sotrastaurin]
In short: as §1

Tubastatin A = compound: CN1CCc2c(c3ccccc3n2Cc2ccc(C(=O)NO)cc2)C1 [Tubastatin A]
In short: as §1

[1] = compound: CNC(=O)C1=CC=CC=C1NC2=NC(=NC=C2Cl)NC3=C(C=C(C=C3)N4CCOCC4)OC
In short: as §1

defactinib = compound: CNC(=O)c1ccc(Nc2ncc(C(F)(F)F)c(NCc3nccnc3N(C)S(C)(=O)=O)n2)cc1 [defactinib]
In short: as §1

rucaparib = compound: CNCc1ccc(-c2[nH]c3cc(F)cc4c3c2CCNC4=O)cc1 [rucaparib]
In short: as §1

[2] = compound: CNc1nc(-c2ccc3c(N)n[nH]c3c2)cc(N2C[C@@H](C(=O)NC3CCCCC3)CC[C@H]2C)n1
In short: as §1

encorafenib = compound: COC(=O)N[C@@H](C)CNc1nccc(-c2cn(C(C)C)nc2-c2cc(Cl)cc(NS(C)(=O)=O)c2F)n1 [encorafenib]
In short: as §1

[3] = compound: COC(=O)[C@H](CCSC)NC(=O)C1=C(C=C(C=C1)NC[C@H](CS)N)C2=CC=CC=C2
In short: as §1

[4] = compound: COC1=CC=C(C=C1)CN2C=CC3=C2C=C(C=C3)C(=O)NO
In short: as §1

filanesib = compound: CON(C)C(=O)N1N=C(c2cc(F)ccc2F)S[C@@]1(CCCN)c1ccccc1 [filanesib]
In short: as §1

zotarolimus = compound: CO[C@H]1C[C@@H]2CC[C@@H](C)[C@@](O)(O2)C(=O)C(=O)N2CCCC[C@H]2C(=O)O[C@H]([C@H](C)C[C@@H]2CC[C@H](n3cnnn3)[C@H](OC)C2)CC(=O)[C@H](C)/C=C(\C)[C@@H](O)[C@@H](OC)C(=O)[C@H](C)C[C@H](C)/C=C/C=C/C=C/1C [zotarolimus]
In short: as §1

idasanutlin = compound: COc1cc(C(=O)O)ccc1NC(=O)[C@@H]1N[C@@H](CC(C)(C)C)[C@](C#N)(c2ccc(Cl)cc2F)[C@H]1c1cccc(Cl)c1F [idasanutlin]
In short: as §1

alisertib = compound: COc1cc(Nc2ncc3c(n2)-c2ccc(Cl)cc2C(c2c(F)cccc2OC)=NC3)ccc1C(=O)O [alisertib]
In short: as §1

[5] = compound: COc1cc2nc(-c3cc(F)ccc3O)nc(N[C@@H]3CNC[C@H]3C(C)(C)O)c2cc1OC
In short: as §1

gefitinib = compound: COc1cc2ncnc(Nc3ccc(F)c(Cl)c3)c2cc1OCCCN1CCOCC1 [gefitinib]
In short: as §1

[6] = compound: COc1cccc2cc(-c3nc([C@H]4CC[C@H](C(=O)O)CC4)n4ncnc(N)c34)[nH]c12
In short: as §1

lapatinib = compound: CS(=O)(=O)CCNCc1ccc(-c2ccc3ncnc(Nc4ccc(OCc5cccc(F)c5)c(Cl)c4)c3c2)o1 [lapatinib]
In short: as §1

pictilisib = compound: CS(=O)(=O)N1CCN(Cc2cc3nc(-c4cccc5[nH]ncc45)nc(N4CCOCC4)c3s2)CC1 [pictilisib]
In short: as §1

alvocidib = compound: CN1CC[C@H](c2c(O)cc(O)c3c(=O)cc(-c4ccccc4Cl)oc23)[C@H](O)C1 [alvocidib]
In short: as §1

Measured: log2 fold change

GNB2 (UniProt P62879)
inactive: saracatinib -0.033 | sotrastaurin 0.019 | Tubastatin A 0.015 | [1] -0.002 | defactinib -0.028 | rucaparib -0.004 | [2] 0.039 | encorafenib 0.005 | [3] -0.065 | [4] -0.051 | filanesib 0.034 | zotarolimus -0.006 | idasanutlin -0.058 | alisertib -0.068 | [5] 0.089 | gefitinib 0.085 | [6] -0.071 | lapatinib 0 | pictilisib 0.13

GPATCH1 (UniProt Q9BRR8)
inactive: saracatinib -0.089 | sotrastaurin -0.135 | alvocidib -0.054 | Tubastatin A -0.292 | [1] -0.239 | defactinib -0.055 | rucaparib -0.161 | [2] -0.113 | encorafenib -0.198 | [3] -0.006 | filanesib 0.021 | zotarolimus 0.11 | [5] 0.121 | lapatinib 0.005

GOLGB1 isoform 2 (UniProt Q14789)
active: filanesib 0.337
inactive: saracatinib -0.056 | sotrastaurin -0.121 | Tubastatin A 0.029 | [1] 0.048 | defactinib 0 | rucaparib 0.02 | [2] -0.001 | encorafenib -0.04 | [3] 0.003 | [4] -0.16 | zotarolimus -0.04 | idasanutlin 0.066 | alisertib -0.069 | [5] 0.072 | gefitinib -0.02 | [6] -0.051 | lapatinib 0.046 | pictilisib 0.066

GON4L (UniProt Q3T8J9)
inactive: saracatinib 0.053 | sotrastaurin -0.032 | alvocidib -0.093 | Tubastatin A -0.068 | rucaparib 0.047 | [2] -0.017 | encorafenib 0.123 | [4] 0.039 | filanesib -0.048 | zotarolimus 0.001 | idasanutlin 0.165 | alisertib -0.058 | [5] 0.154 | gefitinib -0.05 | [6] 0.193 | lapatinib 0.038

GMEB2 (UniProt Q9UKD1)
inactive: saracatinib 0.018 | sotrastaurin -0.019 | Tubastatin A 0.051 | [1] -0.065 | defactinib -0.156 | [2] -0.023 | encorafenib -0.007 | [3] 0.008 | [4] -0.027 | filanesib 0.04 | zotarolimus 0.03 | idasanutlin 0.073 | alisertib -0.009 | [5] 0.053 | gefitinib 0.038 | [6] 0.027 | lapatinib -0.022 | pictilisib 0.101
active: rucaparib 0.275

GMIP (UniProt Q9P107)
inactive: saracatinib -0.291 | sotrastaurin 0.105 | alvocidib 0.054 | Tubastatin A 0.129 | [1] -0.143 | [2] -0.001 | [4] 0.087 | filanesib 0.038 | zotarolimus -0.024 | gefitinib -0.1

GPKOW (UniProt Q92917)
inactive: saracatinib -0.03 | sotrastaurin -0.031 | Tubastatin A 0.033 | [1] -0.107 | defactinib -0.178 | rucaparib -0.036 | [2] 0.069 | encorafenib 0.034 | [3] -0.032 | [4] -0.055 | filanesib -0.118 | zotarolimus 0.024 | idasanutlin -0.06 | alisertib 0.039 | [5] -0.021 | gefitinib 0.047 | [6] 0.11 | lapatinib -0.005 | pictilisib -0.037

GLS isoform 3 (UniProt O94925)
inactive: saracatinib -0.025 | sotrastaurin -0.027 | Tubastatin A 0.14 | [1] -0.025 | defactinib -0.139 | rucaparib -0.045 | [2] -0.063 | encorafenib 0.039 | [3] 0 | [4] -0.021 | filanesib -0.029 | zotarolimus 0.008 | idasanutlin -0.26 | alisertib -0.003 | [5] 0.216 | gefitinib 0.041 | [6] 0.031 | lapatinib 0 | pictilisib 0.078

GPX4 (UniProt P36969)
inactive: saracatinib 0.043 | sotrastaurin 0.004 | [1] -0.02 | defactinib -0.009 | rucaparib 0.002 | [2] -0.037 | encorafenib -0.009 | [3] -0.013 | [4] -0.035 | filanesib -0.011 | idasanutlin 0.032 | alisertib -0.02 | [5] 0.003 | gefitinib -0.004 | [6] 0.076 | lapatinib -0.036 | pictilisib -0.034
active: Tubastatin A -0.371 | zotarolimus -0.248

GNAS (UniProt Q5JWF2)
inactive: saracatinib -0.023 | sotrastaurin 0.036 | Tubastatin A 0.011 | [1] -0.004 | defactinib 0.012 | rucaparib 0.029 | [2] 0.069 | encorafenib 0.021 | [3] -0.041 | [4] -0.048 | filanesib 0 | zotarolimus -0.03 | idasanutlin -0.048 | alisertib -0.09 | [5] 0.052 | gefitinib 0.108 | [6] -0.077 | lapatinib 0.02 | pictilisib 0.051

GOLIM4 (UniProt F8W785)
inactive: saracatinib 0.014 | sotrastaurin 0.075 | alvocidib 0.035 | Tubastatin A 0.05 | defactinib 0.025 | rucaparib 0.079 | [2] 0.006 | encorafenib 0.012 | [3] -0.021 | [4] -0.025 | filanesib -0.004 | zotarolimus -0.034 | gefitinib 0.074 | pictilisib 0.054

From the supplement of paper PMC10849652
